{"source": "ChEMBL document CHEMBL5038592", "about": "“Discovery of MK-8153, a Potent and Selective ROMK Inhibitor and Novel Diuretic/Natriuretic” (J Med Chem, 2021)", "assay": "Apparent permeability in pig LLC-PK1 cells"}
{"compound": "COc1nsc(N2CCC3(CCN(C[C@H](O)c4ccc5c(c4C)COC5=O)CC3)C2=O)n1", "values": [{"measurement": "Papp", "result": 36, "unit": "×10⁻⁶ cm/s"}]}
